The list shows a part of the results. Most of these values are background signal.
Assays:
Assay in all cases: fluorescence intensity of antibody binding to polysaccharide-coupled beads; higher = stronger binding
[1] = biological target: pneumococcal polysaccharide Pn13
[2] = biological target: pneumococcal polysaccharide Pn14
[3] = biological target: pneumococcal polysaccharide Pn15A
[4] = biological target: pneumococcal polysaccharide Pn15B
[5] = biological target: pneumococcal polysaccharide Pn15C
[6] = biological target: pneumococcal polysaccharide Pn15F
[7] = biological target: pneumococcal polysaccharide Pn16A
[8] = biological target: pneumococcal polysaccharide Pn16F
[9] = biological target: pneumococcal polysaccharide Pn17A
[10] = biological target: pneumococcal polysaccharide Pn17F
[11] = biological target: pneumococcal polysaccharide Pn18A
[12] = biological target: pneumococcal polysaccharide Pn18B
[13] = biological target: pneumococcal polysaccharide Pn18C
[14] = biological target: pneumococcal polysaccharide Pn18F
[15] = biological target: pneumococcal polysaccharide Pn19A
[16] = biological target: pneumococcal polysaccharide Pn19B
[17] = biological target: pneumococcal polysaccharide Pn19C
[18] = biological target: pneumococcal polysaccharide Pn19F
[19] = biological target: pneumococcal polysaccharide Pn2
[20] = biological target: pneumococcal polysaccharide Pn20A
[21] = biological target: pneumococcal polysaccharide Pn20B
[22] = biological target: pneumococcal polysaccharide Pn21
[23] = biological target: pneumococcal polysaccharide Pn22A
[24] = antibody concentration 0.1 ng/mL
[25] = antibody concentration 0.534724 ng/mL
[26] = antibody concentration 2.8593 ng/mL
[27] = antibody concentration 15.2894 ng/mL
[28] = antibody concentration 81.7561 ng/mL
[29] = antibody concentration 437.17 ng/mL
[30] = antibody concentration 2337.65 ng/mL
[31] = antibody concentration 12500 ng/mL

B1: 4-127.4 (protein)
chain 1: QVQLQESGPGLVKPSETLSLTCGVSGYSISSGHGWSWIRQPPGKGLEWIGYVGGSSGNTNYNPSLKSRVTISKDTSKNQISLKLSSVTAADTAVYYCARRGISGTFGLVDYWGQGVLVTVSS
chain 2: QSVLTQPPSVSGAPGQRVTISCTGSSSNIGGYYVQWYQQLPGSAPKLLIYDNDQRPSGVSDRISGSRSGTSASLTITGLQSEDEADYYCQSFDSFLRGVLFGGGTRLTVL
**Q.** Which results are given for B1?
**A.** fluorescence intensity [1, 24]: 20.5 MFI; fluorescence intensity [1, 25]: 19 MFI; fluorescence intensity [1, 26]: 19 MFI; fluorescence intensity [1, 27]: 18.5 MFI; fluorescence intensity [1, 28]: 18.8 MFI; fluorescence intensity [1, 29]: 19 MFI; fluorescence intensity [1, 30]: 20 MFI; fluorescence intensity [1, 31]: 24.5 MFI; fluorescence intensity [2, 24]: 14 MFI; fluorescence intensity [2, 25]: 14.5 MFI; fluorescence intensity [2, 26]: 13.8 MFI; fluorescence intensity [2, 27]: 15 MFI; fluorescence intensity [2, 28]: 14 MFI; fluorescence intensity [2, 29]: 16.5 MFI; fluorescence intensity [2, 30]: 20.5 MFI; fluorescence intensity [2, 31]: 59.8 MFI; fluorescence intensity [3, 24]: 14 MFI; fluorescence intensity [3, 25]: 12.5 MFI; fluorescence intensity [3, 26]: 12.5 MFI; fluorescence intensity [3, 27]: 12.2 MFI; fluorescence intensity [3, 28]: 13 MFI; fluorescence intensity [3, 29]: 13.5 MFI; fluorescence intensity [3, 30]: 13 MFI; fluorescence intensity [3, 31]: 14 MFI; fluorescence intensity [4, 24]: 17.5 MFI; fluorescence intensity [4, 25]: 19 MFI; fluorescence intensity [4, 26]: 18 MFI; fluorescence intensity [4, 27]: 18.5 MFI; fluorescence intensity [4, 28]: 18.5 MFI; fluorescence intensity [4, 29]: 22.5 MFI; fluorescence intensity [4, 30]: 22.8 MFI; fluorescence intensity [4, 31]: 29 MFI; fluorescence intensity [5, 24]: 14.5 MFI; fluorescence intensity [5, 25]: 15.2 MFI; fluorescence intensity [5, 26]: 17 MFI; fluorescence intensity [5, 27]: 16.5 MFI; fluorescence intensity [5, 28]: 16.5 MFI; fluorescence intensity [5, 29]: 16.8 MFI; fluorescence intensity [5, 30]: 18.8 MFI; fluorescence intensity [5, 31]: 20.8 MFI; fluorescence intensity [6, 24]: 17.8 MFI; fluorescence intensity [6, 25]: 18 MFI; fluorescence intensity [6, 26]: 17.5 MFI; fluorescence intensity [6, 27]: 16.2 MFI; fluorescence intensity [6, 28]: 18 MFI; fluorescence intensity [6, 29]: 16.5 MFI; fluorescence intensity [6, 30]: 19.2 MFI; fluorescence intensity [6, 31]: 23 MFI; fluorescence intensity [7, 24]: 16.8 MFI; fluorescence intensity [7, 25]: 14 MFI; fluorescence intensity [7, 26]: 15.5 MFI; fluorescence intensity [7, 27]: 12.5 MFI; fluorescence intensity [7, 28]: 14.5 MFI; fluorescence intensity [7, 29]: 14 MFI; fluorescence intensity [7, 30]: 14 MFI; fluorescence intensity [7, 31]: 18.5 MFI; fluorescence intensity [8, 24]: 25.8 MFI; fluorescence intensity [8, 25]: 23.5 MFI; fluorescence intensity [8, 26]: 25 MFI; fluorescence intensity [8, 27]: 23.5 MFI; fluorescence intensity [8, 28]: 25.5 MFI; fluorescence intensity [8, 29]: 24.8 MFI; fluorescence intensity [8, 30]: 27.5 MFI; fluorescence intensity [8, 31]: 34.5 MFI; fluorescence intensity [9, 24]: 20.5 MFI; fluorescence intensity [9, 25]: 19.5 MFI; fluorescence intensity [9, 26]: 21.5 MFI; fluorescence intensity [9, 27]: 20 MFI; fluorescence intensity [9, 28]: 19.5 MFI; fluorescence intensity [9, 29]: 19.5 MFI; fluorescence intensity [9, 30]: 21 MFI; fluorescence intensity [9, 31]: 24.2 MFI; fluorescence intensity [10, 24]: 28 MFI; fluorescence intensity [10, 25]: 26.8 MFI; fluorescence intensity [10, 26]: 27 MFI; fluorescence intensity [10, 27]: 26.5 MFI; fluorescence intensity [10, 28]: 26.5 MFI; fluorescence intensity [10, 29]: 26 MFI; fluorescence intensity [10, 30]: 27 MFI; fluorescence intensity [10, 31]: 29.8 MFI; fluorescence intensity [11, 24]: 23 MFI; fluorescence intensity [11, 25]: 23.2 MFI; fluorescence intensity [11, 26]: 24.5 MFI; fluorescence intensity [11, 27]: 22 MFI; fluorescence intensity [11, 28]: 23.8 MFI; fluorescence intensity [11, 29]: 23.5 MFI; fluorescence intensity [11, 30]: 24.5 MFI; fluorescence intensity [11, 31]: 27 MFI; fluorescence intensity [12, 24]: 32 MFI; fluorescence intensity [12, 25]: 30.2 MFI; fluorescence intensity [12, 26]: 30.5 MFI; fluorescence intensity [12, 27]: 31 MFI; fluorescence intensity [12, 28]: 32.2 MFI; fluorescence intensity [12, 29]: 30.5 MFI; fluorescence intensity [12, 30]: 33 MFI; fluorescence intensity [12, 31]: 40.8 MFI; fluorescence intensity [13, 24]: 18.5 MFI; fluorescence intensity [13, 25]: 18 MFI; fluorescence intensity [13, 26]: 17 MFI; fluorescence intensity [13, 27]: 18 MFI; fluorescence intensity [13, 28]: 21 MFI; fluorescence intensity [13, 29]: 20.5 MFI; fluorescence intensity [13, 30]: 23.8 MFI; fluorescence intensity [13, 31]: 33 MFI; fluorescence intensity [14, 24]: 22.5 MFI; fluorescence intensity [14, 25]: 24 MFI; fluorescence intensity [14, 26]: 23.5 MFI; fluorescence intensity [14, 27]: 23 MFI; fluorescence intensity [14, 28]: 23 MFI; fluorescence intensity [14, 29]: 24 MFI; fluorescence intensity [14, 30]: 25.5 MFI; fluorescence intensity [14, 31]: 33 MFI; fluorescence intensity [15, 24]: 16.5 MFI; fluorescence intensity [15, 25]: 19 MFI; fluorescence intensity [15, 26]: 17.2 MFI; fluorescence intensity [15, 27]: 18 MFI; fluorescence intensity [15, 28]: 19 MFI; fluorescence intensity [15, 29]: 20.8 MFI; fluorescence intensity [15, 30]: 19.5 MFI; fluorescence intensity [15, 31]: 27.8 MFI; fluorescence intensity [16, 24]: 31 MFI; fluorescence intensity [16, 25]: 29.5 MFI; fluorescence intensity [16, 26]: 29.5 MFI; fluorescence intensity [16, 27]: 29 MFI; fluorescence intensity [16, 28]: 29 MFI; fluorescence intensity [16, 29]: 29 MFI; fluorescence intensity [16, 30]: 34 MFI; fluorescence intensity [16, 31]: 69.8 MFI; fluorescence intensity [17, 24]: 27 MFI; fluorescence intensity [17, 25]: 25 MFI; fluorescence intensity [17, 26]: 25.5 MFI; fluorescence intensity [17, 27]: 24 MFI; fluorescence intensity [17, 28]: 25.2 MFI; fluorescence intensity [17, 29]: 24.2 MFI; fluorescence intensity [17, 30]: 30 MFI; fluorescence intensity [17, 31]: 51.8 MFI; fluorescence intensity [18, 24]: 25 MFI; fluorescence intensity [18, 25]: 25.8 MFI; fluorescence intensity [18, 26]: 25.8 MFI; fluorescence intensity [18, 27]: 25.8 MFI; fluorescence intensity [18, 28]: 24.8 MFI; fluorescence intensity [18, 29]: 26 MFI; fluorescence intensity [18, 30]: 29.2 MFI; fluorescence intensity [18, 31]: 42 MFI; fluorescence intensity [19, 24]: 18 MFI; fluorescence intensity [19, 25]: 20 MFI; fluorescence intensity [19, 26]: 20 MFI; fluorescence intensity [19, 27]: 21 MFI; fluorescence intensity [19, 28]: 20 MFI; fluorescence intensity [19, 29]: 19.5 MFI; fluorescence intensity [19, 30]: 21.2 MFI; fluorescence intensity [19, 31]: 27.2 MFI; fluorescence intensity [20, 24]: 25.2 MFI; fluorescence intensity [20, 25]: 21.5 MFI; fluorescence intensity [20, 26]: 22.2 MFI; fluorescence intensity [20, 27]: 22.5 MFI; fluorescence intensity [20, 28]: 22 MFI; fluorescence intensity [20, 29]: 23.5 MFI; fluorescence intensity [20, 30]: 25.5 MFI; fluorescence intensity [20, 31]: 48.5 MFI; fluorescence intensity [21, 24]: 25.5 MFI; fluorescence intensity [21, 25]: 24.5 MFI; fluorescence intensity [21, 26]: 24.2 MFI; fluorescence intensity [21, 27]: 23.8 MFI; fluorescence intensity [21, 28]: 23.5 MFI; fluorescence intensity [21, 29]: 24 MFI; fluorescence intensity [21, 30]: 25.8 MFI; fluorescence intensity [21, 31]: 28.5 MFI; fluorescence intensity [22, 24]: 19 MFI; fluorescence intensity [22, 25]: 17.5 MFI; fluorescence intensity [22, 26]: 20.5 MFI; fluorescence intensity [22, 27]: 17.5 MFI; fluorescence intensity [22, 28]: 19.5 MFI; fluorescence intensity [22, 29]: 21.2 MFI; fluorescence intensity [22, 30]: 21 MFI; fluorescence intensity [22, 31]: 24.5 MFI; fluorescence intensity [23, 24]: 23.2 MFI; fluorescence intensity [23, 25]: 21 MFI; fluorescence intensity [23, 26]: 22 MFI; fluorescence intensity [23, 27]: 20.2 MFI
